Measured values from article PMC10163288.
Some of the results follow.

B1: il10ra_site1_normal_mot_HHH_b2_00984_000000042_0001_1_20_H_._HHH_b2_04946_af2_0001_0000100006_0000001_1 (protein)
chain: SSSSSSSSEELLEELEKLAEEGDQEKFLRLAQEILQLLLELGDAEALKELWELIRKFASSSSSSS
B2: il10ra_site1_normal_mot_HHH_b1_05357_000000034_0001_23_39_H_._ems_3hC_894_af2_0001_0000100001_0000001_0 (protein)
chain: SDLKLRVSHLIIQIYALAHQQQDPRLRELAEELARLAVEAAARNDEEKLKEVLEEAEEVVREGSS
B3: il10ra_site1_sap_21_mot_HHH_b1_03763_000000209_0001_22_38_H_._HHH_b1_06027_0001_0000700036_0000001_0_0001 (protein)
chain: SSSSSEREELYELSQRALELWAEGNPEEAEELLREAERLAEELGSRVLLINLRYALERLSSSSSS
B4: il10ra_site1_normal_mot_HHH_b2_00984_000000042_0001_1_20_H_._HHH_b1_06265_0001_0000500026_0000001_0 (protein)
chain: SSSSSDEEEEEIEELLEEAKRIKDLEEAAEVLLEATRIALHAGNAELLQEVWEVIKKLASSSSSS
B5: il10ra_site1_sap_18_mot_HHH_b2_03963_af2_000000216_0001_1_19_H_._HHH_b1_04083_0001_0000300034_0000002_0_0001_af2pred_dldesign_0_af2pred (protein)
chain: SSSSSPVEELVEEYCKRLAELRRAGRDDEAAALLAEATAELEALGDPEAVHRLNVFAELSLSSSS
B6: il10ra_site1_sap_12_mot_HHH_b2_06846_000000142_0001_38_52_H_._HHH_b1_01105_af2_0001_0000200004_0000001_0_0001 (protein)
chain: SSSSSEKEELARAIERLIEQAQEWNDETLLKFMLLALEMLVEEIGDPELRRRLEELEERLSSSSS
B7: il10ra_site1_normal_mot_HHH_b1_05937_af2_000000262_0001_20_37_H_._HHH_b1_08754_af2_0001_0000100001_0000001_0 (protein)
chain: SSSSDDEEERVLRLIIEANRLIFKGNPEEAQEVIEEAEELVKELGDEVLRRALEQVQRVLESSSS
B8: il10ra_site1_sap_15_mot_HHH_b2_08265_af2_000000206_0001_22_38_H_._HHH_b2_02861_af2_0001_0000700035_0000001_0_0001 (protein)
chain: SSSSDEAYEIARKAIEEALELLRNGNPEEAREIVEEAIELIRELGNEAAVFNLEHLLRVINSSSS
B9: il10ra_site1_sap_21_mot_HHH_b1_02420_000000033_0001_20_36_H_._HHH_b1_02091_0001_0000100003_0000001_0_0001 (protein)
chain: SSSSDTLEWSVEFALRVAEELYERGNEERAKELLKALRENVERAGNEELRRKVEELLEELSSSSS
B10: il10ra_site1_sap_18_mot_HHH_b2_01736_af2_000000067_0001_1_17_H_._HHH_b2_03657_0001_0000400016_0000001_0_0001 (protein)
chain: SSEDQELIENAIRFWERMYRQGAVSPEEAARALRVLIEAAEKDGDEELAEKARKLLEEIEEEKSS
B11: il10ra_site1_sap_22_mot_HHH_b1_03859_af2_000000004_0001_44_57_H_._HHH_b1_05263_0001_0000100013_0000002_0_0001_af2pred_0001 (protein)
chain: SSSSDEELILRALLRQLELALRHGDEELFERLLRAAKLAAELRNDEEIRKLLEELEKEVNSSSSS
B12: il10ra_site1_normal_mot_HHH_b1_04771_000000013_0001_40_56_H_._HHH_b2_03230_0001_0000300024_0000001_0 (protein)
chain: SSSSSDVEEAAELSLEAFRLALRGDPEQAREVLEEALEIAEEGGDERLARVIEDLLELLSSSSSS
B13: il10ra_site1_normal_mot_HHH_b1_00999_000000080_0001_41_55_H_._HHH_b2_01363_af2_0001_0000100001_0000002_0 (protein)
chain: SSSSSSEEVEEEVERLLEEAKEIEDPEEAMRVLLEALQIALRNNNKELLQLVWRIIKELGSSSSS
B14: il10ra_site1_normal_mot_HHH_b1_04771_000000013_0001_40_56_H_._HHH_b1_02827_0001_0000100001_0000002_0 (protein)
chain: SSSSDEELQQALELSLEAFRLALRGNPEEARKVLEEAEELVREAGDPQLLETIEELLKALSSSSS
B15: il10ra_site1_sap_24_mot_HHH_b1_06912_af2_000000235_0001_1_15_H_._HHH_b1_04651_0001_0000100003_0000001_0_0001 (protein)
chain: SSSSDQELYRKVEELIEEAIELQRRGNPEEARRLLEELLEELEELNNPNMLYNVRHLLKAISSSS
B16: il10ra_site1_sap_19_mot_HHH_b1_07527_000000076_0001_1_15_H_._HHH_b1_00461_af2_0001_0000100005_0000001_0_0001_af2pred_dldesign_0_af2pred (protein)
chain: SPEERIAAGIRAAAAQAGVPRVEVEFKDGVVRVTLTGDPEACAAALTKAEAIAKLNNLKLEVELR
B17: il10ra_site1_normal_mot_HHH_b2_03220_af2_000000223_0001_23_40_H_._HHH_b1_01682_af2_0001_0000100007_0000001_0 (protein)
chain: SSSSNEEVWELIREALELLADGDKEEAEKVAEEALELAREAGSEALEFAIRLLEEAIRLRSSSSS
B18: il10ra_site1_normal_mot_HHH_b2_08144_af2_000000046_0001_38_52_H_._HHH_b2_06212_af2_0001_0000100004_0000001_0 (protein)
chain: SSSSSEELEEAFKALRRLAELAHEGNPEEFKELAEKAQEIVEELGNELLEIQLEFLKRLVLSSSS
B19: il10ra_site1_sap_17_mot_ems_4hM_4652_af2_000000118_0001_50_63_H_._HHH_b1_00111_0001_0000100006_0000002_0_0001 (protein)
chain: SSSSDEEEEKLARLMEKMVEAFIRNDKEEVEKLTEEAEELAKELGNEQLLKFLENLRRALSSSSS
B20: il10ra_site1_normal_mot_ems_3hM_235_000000244_0001_46_64_H_._HHH_b1_07791_af2_0001_0000400011_0000001_0 (protein)
chain: SSSSTALERVWELARRILELVRQGDHERAEELLEEVEELLEETGSPIIESVLRALKILLGSSSSS
B21: il10ra_site1_sap_15_mot_HHH_b1_07286_af2_000000054_0001_1_19_H_._HHH_b1_00076_0001_0000300011_0000001_0_0001 (protein)
chain: SSSSSSEEEEVEELLEEAKRIPDEREVSKLLLRATRLAIQLQDPELLQLVWRVVKELAERSSSSS
B22: il10ra_site1_normal_mot_HHH_b1_03353_af2_000000170_0001_1_18_H_._HHH_b2_01741_0001_0000300013_0000001_0_af2pred_dldesign_0_af2pred (protein)
chain: SSSSDPRAEVRRLLEEALALAKAGKNEEATALLRRAAELAGELEDPELEALVIETARKILESSSS
B23: il10ra_site1_sap_21_mot_HHH_b1_05056_000000217_0001_1_20_H_._HHH_b1_00422_0001_0000300026_0000002_0_0001 (protein)
chain: SSSSDEEERYARMSLKFVEALIEDGNPEAAREMIRVAEETVKKLGDEEVLEELERLLEELSSSSS
B24: il10ra_site1_normal_mot_e1dd4851c59bc1cdde016f988f6856bd_0001_1_000000200_0001_16_31_H_._HHH_b2_06847_0001_0000700040_0000002_0 (protein)
chain: SSSSERELREMLEFQVRALVQTFGLDEEEREELEELAEELAERGVDPREASLELYELARRLSSSS

These binders were tested against il10ra, Q13651 (assay: yeast display titration).

Apparent Kd, inactive:
B1 no binding seen
B2 no binding seen
B3 no binding seen
B4 no binding seen
B5 no binding seen
B6 no binding seen
B7 no binding seen
B8 no binding seen
B9 no binding seen
B10 no binding seen
B11 no binding seen
B12 no binding seen
B13 no binding seen
B14 no binding seen
B15 no binding seen
B16 no binding seen
B17 no binding seen
B18 no binding seen
B19 no binding seen
B20 no binding seen
B21 no binding seen
B22 no binding seen
B23 no binding seen
B24 no binding seen

As a short view, some entries already given.
Apparent Kd, inactive:
B1 no binding seen
B2 no binding seen
B3 no binding seen
B4 no binding seen
B5 no binding seen
